According to the supplement of paper PMC12823440, “Inhibitors supercharge kinase turnover through native proteolytic circuits” (Nature, 2025):
Where a name gives a salt, the structure may show the parent alone. The list shows a part of the results. Hit calls seldom repeat between salt and free forms of one compound.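 In K562 cells expressing nanoluciferase-fused kinases, luminescence was recorded at 4 h intervals between 2 and 18 h, normalized as percent of control with DMSO at 100% and a positive control at 0%. A significant (2 sigma) signal drop marks a time point as decreased. The authors' rule for a hit is not shown and takes in more than the number of time points.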

By UniProt entry, the sequences of proteins in these tests, tags left out. Where a name states a change or a piece, a line headed by the entry shows the natural chain unless it says otherwise.
UniProt P07949, whole entry, looked up: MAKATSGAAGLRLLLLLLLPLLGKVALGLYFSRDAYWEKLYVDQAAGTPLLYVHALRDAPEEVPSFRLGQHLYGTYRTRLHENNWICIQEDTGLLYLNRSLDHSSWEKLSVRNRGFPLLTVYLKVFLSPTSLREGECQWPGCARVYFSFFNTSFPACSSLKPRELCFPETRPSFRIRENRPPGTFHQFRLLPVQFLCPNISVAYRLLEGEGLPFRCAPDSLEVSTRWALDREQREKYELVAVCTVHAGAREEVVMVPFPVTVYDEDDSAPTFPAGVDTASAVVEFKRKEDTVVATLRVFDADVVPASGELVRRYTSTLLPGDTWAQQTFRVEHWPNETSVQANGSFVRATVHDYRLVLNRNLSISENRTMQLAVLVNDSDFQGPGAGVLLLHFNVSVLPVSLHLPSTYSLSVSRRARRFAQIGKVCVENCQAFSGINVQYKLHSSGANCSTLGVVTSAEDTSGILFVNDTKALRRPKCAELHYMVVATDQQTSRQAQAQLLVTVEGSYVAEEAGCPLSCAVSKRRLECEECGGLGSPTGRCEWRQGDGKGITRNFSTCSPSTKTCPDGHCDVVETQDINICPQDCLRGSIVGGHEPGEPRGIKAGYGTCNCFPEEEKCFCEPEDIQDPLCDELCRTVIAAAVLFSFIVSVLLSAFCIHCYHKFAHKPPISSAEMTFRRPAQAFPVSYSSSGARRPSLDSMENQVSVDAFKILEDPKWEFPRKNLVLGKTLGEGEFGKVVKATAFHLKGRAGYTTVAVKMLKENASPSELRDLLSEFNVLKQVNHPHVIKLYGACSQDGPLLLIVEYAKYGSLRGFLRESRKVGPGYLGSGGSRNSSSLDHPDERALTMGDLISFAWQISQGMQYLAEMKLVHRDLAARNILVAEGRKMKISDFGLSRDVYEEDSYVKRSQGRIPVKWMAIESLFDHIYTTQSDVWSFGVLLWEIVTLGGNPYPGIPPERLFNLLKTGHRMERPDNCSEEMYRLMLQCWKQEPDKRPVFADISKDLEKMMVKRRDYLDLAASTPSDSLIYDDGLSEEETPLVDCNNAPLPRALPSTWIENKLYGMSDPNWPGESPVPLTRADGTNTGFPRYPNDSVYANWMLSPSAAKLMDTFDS
UniProt P07949, whole entry M918T, looked up: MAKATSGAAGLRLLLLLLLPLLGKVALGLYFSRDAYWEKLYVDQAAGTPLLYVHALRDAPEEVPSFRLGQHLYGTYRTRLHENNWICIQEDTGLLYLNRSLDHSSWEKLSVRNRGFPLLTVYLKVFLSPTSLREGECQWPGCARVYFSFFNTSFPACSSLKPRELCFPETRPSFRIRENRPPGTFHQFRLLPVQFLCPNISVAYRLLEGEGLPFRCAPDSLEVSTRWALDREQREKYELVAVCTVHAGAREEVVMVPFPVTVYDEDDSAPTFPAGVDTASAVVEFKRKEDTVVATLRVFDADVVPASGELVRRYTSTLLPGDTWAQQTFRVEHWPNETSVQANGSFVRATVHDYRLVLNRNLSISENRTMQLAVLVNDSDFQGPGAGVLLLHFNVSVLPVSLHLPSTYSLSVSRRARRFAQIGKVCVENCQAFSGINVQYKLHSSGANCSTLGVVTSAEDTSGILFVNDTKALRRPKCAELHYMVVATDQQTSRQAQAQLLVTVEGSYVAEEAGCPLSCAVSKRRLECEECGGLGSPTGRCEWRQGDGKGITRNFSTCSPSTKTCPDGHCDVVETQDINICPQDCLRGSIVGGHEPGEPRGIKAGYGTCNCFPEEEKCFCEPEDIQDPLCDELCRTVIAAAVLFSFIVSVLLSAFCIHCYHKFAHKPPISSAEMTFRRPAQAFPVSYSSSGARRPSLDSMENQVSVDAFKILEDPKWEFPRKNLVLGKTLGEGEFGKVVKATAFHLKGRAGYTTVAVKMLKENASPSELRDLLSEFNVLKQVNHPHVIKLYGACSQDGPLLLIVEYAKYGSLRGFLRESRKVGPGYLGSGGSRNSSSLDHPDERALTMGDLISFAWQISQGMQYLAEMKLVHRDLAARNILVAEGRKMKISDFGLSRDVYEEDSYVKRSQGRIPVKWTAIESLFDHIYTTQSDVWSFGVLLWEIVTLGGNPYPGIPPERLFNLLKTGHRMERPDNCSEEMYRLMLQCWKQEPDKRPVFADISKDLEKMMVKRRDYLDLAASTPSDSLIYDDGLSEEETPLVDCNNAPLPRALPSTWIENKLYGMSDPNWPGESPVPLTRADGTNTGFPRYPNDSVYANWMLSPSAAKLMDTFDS
UniProt Q9BRS2: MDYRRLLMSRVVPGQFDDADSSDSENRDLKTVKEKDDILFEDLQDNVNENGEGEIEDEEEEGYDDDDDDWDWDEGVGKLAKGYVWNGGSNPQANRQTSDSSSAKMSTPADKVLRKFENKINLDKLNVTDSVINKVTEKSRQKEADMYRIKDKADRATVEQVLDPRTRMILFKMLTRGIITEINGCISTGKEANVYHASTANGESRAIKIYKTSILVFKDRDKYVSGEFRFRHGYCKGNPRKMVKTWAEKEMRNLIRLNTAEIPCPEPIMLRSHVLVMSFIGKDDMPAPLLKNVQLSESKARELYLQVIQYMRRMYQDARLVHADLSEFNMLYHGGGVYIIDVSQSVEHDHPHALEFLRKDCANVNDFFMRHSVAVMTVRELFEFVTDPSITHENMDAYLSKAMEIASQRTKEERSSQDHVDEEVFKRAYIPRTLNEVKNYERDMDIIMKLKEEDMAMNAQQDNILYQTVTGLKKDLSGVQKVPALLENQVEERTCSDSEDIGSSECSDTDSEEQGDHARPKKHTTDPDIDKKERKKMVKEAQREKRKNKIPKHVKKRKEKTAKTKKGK
UniProt Q13546: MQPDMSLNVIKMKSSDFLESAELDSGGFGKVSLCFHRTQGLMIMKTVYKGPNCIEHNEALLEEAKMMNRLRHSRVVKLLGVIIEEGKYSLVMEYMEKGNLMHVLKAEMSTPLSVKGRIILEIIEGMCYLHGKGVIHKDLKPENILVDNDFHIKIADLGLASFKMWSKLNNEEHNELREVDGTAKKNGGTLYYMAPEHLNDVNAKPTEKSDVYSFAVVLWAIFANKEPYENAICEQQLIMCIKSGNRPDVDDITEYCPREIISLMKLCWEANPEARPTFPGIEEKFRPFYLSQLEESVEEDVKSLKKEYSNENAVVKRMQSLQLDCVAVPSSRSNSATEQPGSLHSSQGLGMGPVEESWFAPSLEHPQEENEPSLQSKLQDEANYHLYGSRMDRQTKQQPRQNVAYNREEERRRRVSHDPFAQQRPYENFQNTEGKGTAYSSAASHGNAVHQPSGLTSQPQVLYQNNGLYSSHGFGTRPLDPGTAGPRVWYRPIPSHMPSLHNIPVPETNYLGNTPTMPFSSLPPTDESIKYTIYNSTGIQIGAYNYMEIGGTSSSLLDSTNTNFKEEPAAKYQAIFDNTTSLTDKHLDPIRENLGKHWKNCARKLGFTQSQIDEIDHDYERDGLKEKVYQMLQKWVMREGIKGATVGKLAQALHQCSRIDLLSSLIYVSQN
UniProt Q01974, whole entry: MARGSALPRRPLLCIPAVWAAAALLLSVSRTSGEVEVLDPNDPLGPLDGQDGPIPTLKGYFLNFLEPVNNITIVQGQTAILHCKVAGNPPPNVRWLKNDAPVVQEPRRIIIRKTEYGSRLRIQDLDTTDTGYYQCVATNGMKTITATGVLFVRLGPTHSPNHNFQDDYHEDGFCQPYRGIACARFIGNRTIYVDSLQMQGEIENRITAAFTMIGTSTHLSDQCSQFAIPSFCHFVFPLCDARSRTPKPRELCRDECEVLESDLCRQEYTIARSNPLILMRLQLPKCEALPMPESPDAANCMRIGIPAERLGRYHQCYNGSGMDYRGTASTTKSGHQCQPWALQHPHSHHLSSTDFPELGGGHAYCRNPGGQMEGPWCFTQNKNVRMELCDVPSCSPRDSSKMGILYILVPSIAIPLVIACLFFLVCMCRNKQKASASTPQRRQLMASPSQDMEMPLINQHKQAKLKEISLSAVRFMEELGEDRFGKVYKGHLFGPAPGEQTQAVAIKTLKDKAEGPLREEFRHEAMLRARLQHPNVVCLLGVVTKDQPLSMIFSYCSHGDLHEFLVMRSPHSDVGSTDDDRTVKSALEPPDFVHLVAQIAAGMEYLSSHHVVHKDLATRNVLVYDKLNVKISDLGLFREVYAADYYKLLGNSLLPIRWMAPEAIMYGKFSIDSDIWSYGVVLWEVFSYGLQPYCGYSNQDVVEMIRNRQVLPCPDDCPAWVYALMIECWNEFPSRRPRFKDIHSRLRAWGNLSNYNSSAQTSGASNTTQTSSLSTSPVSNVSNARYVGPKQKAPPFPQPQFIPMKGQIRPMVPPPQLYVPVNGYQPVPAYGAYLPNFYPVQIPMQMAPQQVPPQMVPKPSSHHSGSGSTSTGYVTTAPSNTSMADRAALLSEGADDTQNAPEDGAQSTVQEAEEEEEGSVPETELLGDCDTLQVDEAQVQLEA
UniProt Q15418, whole entry: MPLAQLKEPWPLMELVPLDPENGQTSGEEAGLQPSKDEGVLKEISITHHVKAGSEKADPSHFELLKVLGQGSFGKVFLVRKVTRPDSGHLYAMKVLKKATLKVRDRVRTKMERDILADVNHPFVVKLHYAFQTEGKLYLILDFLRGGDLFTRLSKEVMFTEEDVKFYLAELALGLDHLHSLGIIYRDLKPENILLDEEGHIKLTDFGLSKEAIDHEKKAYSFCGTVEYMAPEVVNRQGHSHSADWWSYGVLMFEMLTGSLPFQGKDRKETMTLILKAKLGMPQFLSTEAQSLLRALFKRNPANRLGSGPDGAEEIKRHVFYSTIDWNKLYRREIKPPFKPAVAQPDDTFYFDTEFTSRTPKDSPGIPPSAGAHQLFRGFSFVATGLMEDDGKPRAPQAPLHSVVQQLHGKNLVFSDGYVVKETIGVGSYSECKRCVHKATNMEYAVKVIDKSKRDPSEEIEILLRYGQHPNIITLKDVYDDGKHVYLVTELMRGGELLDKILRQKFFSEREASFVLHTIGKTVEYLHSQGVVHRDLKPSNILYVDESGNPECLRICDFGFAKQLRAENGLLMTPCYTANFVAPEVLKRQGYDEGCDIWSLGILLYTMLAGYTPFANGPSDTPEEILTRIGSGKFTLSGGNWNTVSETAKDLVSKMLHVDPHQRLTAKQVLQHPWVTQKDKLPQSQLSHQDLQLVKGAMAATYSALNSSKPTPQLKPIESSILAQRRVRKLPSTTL
UniProt Q9NYA1, whole entry: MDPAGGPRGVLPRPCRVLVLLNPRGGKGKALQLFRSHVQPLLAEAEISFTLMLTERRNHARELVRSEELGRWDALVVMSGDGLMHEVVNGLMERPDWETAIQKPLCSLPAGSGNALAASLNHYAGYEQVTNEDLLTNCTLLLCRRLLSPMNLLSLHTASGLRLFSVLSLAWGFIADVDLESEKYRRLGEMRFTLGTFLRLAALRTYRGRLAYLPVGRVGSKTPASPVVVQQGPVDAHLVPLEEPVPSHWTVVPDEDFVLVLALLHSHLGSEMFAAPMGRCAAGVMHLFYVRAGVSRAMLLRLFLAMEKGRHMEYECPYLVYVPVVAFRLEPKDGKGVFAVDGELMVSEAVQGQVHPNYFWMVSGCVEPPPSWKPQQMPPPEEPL
UniProt Q9Y6E0: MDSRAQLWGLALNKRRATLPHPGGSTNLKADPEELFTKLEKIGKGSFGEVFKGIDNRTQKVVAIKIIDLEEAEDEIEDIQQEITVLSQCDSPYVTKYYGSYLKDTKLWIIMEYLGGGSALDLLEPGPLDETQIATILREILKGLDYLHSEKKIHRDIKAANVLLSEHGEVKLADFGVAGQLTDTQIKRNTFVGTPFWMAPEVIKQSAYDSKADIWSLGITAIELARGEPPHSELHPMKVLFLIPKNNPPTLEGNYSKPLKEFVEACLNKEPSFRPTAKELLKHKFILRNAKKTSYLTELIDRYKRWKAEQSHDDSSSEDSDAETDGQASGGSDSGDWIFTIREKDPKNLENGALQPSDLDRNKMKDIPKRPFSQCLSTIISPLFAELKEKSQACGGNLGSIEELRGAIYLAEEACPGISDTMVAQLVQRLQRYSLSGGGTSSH

Assays:
Assay in all cases: kinase-Nluc reporter destabilization hit call (1 = scored as downregulated) (binary); higher = compound decreases kinase abundance
Details in all cases: K562; 2-18 h
RET = RET (UniProt P07949)
[1] = target: RET_M918T (clone: RET_mut) (UniProt P07949)
RIOK1 = RIOK1 (UniProt Q9BRS2)
RIPK1 = RIPK1 (UniProt Q13546)
RIPK2 = RIPK2 (UniProt O43353)
ROR2 = ROR2 (UniProt Q01974)
RPS6KA1 = RPS6KA1 (UniProt Q15418)
SPHK1 = SPHK1 (UniProt Q9NYA1)
SRC = SRC (UniProt P12931)
STK24 = STK24 (UniProt Q9Y6E0)

Measured: kinase-Nluc reporter destabilization hit call

CC(C)(C)c1cc(C(c2cc3c(cc2O)OCO3)N2CCOCC2)cc(C(C)(C)C)c1O (stereo not given) (2.5 µM)
inactive: RET 0 | [1] 0 | RIOK1 = 0 | RIPK1 = 0 | RIPK2 = 0 | ROR2 = 0 | RPS6KA1 = 0 | SPHK1 = 0 | SRC 0 | STK24 = 0

Cn1cc(-c2cc3c(N4CCN(c5ncc([C@@](C)(N)c6ccc(F)cc6)cn5)CC4)ncnn3c2)cn1 [Avapritinib] (2.5 µM)
inactive: RET 0 | [1] 0 | RIOK1 = 0 | RIPK1 = 0 | RIPK2 = 0 | ROR2 = 0 | RPS6KA1 = 0 | SPHK1 = 0 | SRC 0 | STK24 = 0

O=C1NC(=O)C(=Cc2ccc3c(c2)OCO3)S1 (10 µM)
inactive: RET 0 | [1] 0 | RIOK1 = 0 | RIPK1 = 0 | RIPK2 = 0 | ROR2 = 0 | RPS6KA1 = 0 | SPHK1 = 0 | SRC 0 | STK24 = 0

Cn1ncc(Cl)c1-c1cc(C(=O)N[C@H](CN)Cc2ccc(F)c(F)c2)sc1Cl (10 µM)
inactive: RET 0 | [1] 0 | RIOK1 = 0 | RIPK1 = 0 | RIPK2 = 0 | ROR2 = 0 | RPS6KA1 = 0 | SPHK1 = 0 | SRC 0 | STK24 = 0

c1cc(-c2cnn3cc(-c4ccc(N5CCNCC5)cc4)cnc23)c2cccnc2c1 (2.5 µM)
inactive: RET 0 | [1] 0 | RIOK1 = 0 | RIPK1 = 0 | RIPK2 = 0 | ROR2 = 0 | RPS6KA1 = 0 | SPHK1 = 0 | SRC 0 | STK24 = 0

O=c1cc(-c2ccc(O)c(O)c2O)oc2ccccc12 (10 µM)
inactive: RET 0 | [1] 0 | RIOK1 = 0 | RIPK1 = 0 | RIPK2 = 0 | ROR2 = 0 | RPS6KA1 = 0 | SPHK1 = 0 | SRC 0 | STK24 = 0

Fc1c(Br)cccc1Nc1ncnc2cc3c(cc12)OCCO3 (2.5 µM)
inactive: RET 0 | [1] 0 | RIOK1 = 0 | RIPK1 = 0 | RIPK2 = 0 | ROR2 = 0 | RPS6KA1 = 0 | SPHK1 = 0 | SRC 0 | STK24 = 0

COc1ccc2c(c1)c(C1=C(c3c[nH]c4ccccc34)C(=O)NC1=O)cn2CCCN(C)C (10 µM)
inactive: RET 0 | [1] 0 | RIOK1 = 0 | RIPK1 = 0 | RIPK2 = 0 | ROR2 = 0 | RPS6KA1 = 0 | SPHK1 = 0 | SRC 0 | STK24 = 0

CC(C)(C)Cn1c(N)nc2ccc(-c3[nH]c(C(C)(C)C)nc3-c3ccc(F)cc3)nc21 [Ralimetinib dimesylate] (2.5 µM)
inactive: RET 0 | [1] 0 | RIOK1 = 0 | RIPK1 = 0 | RIPK2 = 0 | ROR2 = 0 | RPS6KA1 = 0 | SPHK1 = 0 | SRC 0 | STK24 = 0

CC1(COc2ccc3c(c2)ncn3-c2ccc3cccc(N4CCC(N)CC4)c3n2)COC1 [Crenolanib] (2.5 µM)
inactive: RET 0 | [1] 0 | RIOK1 = 0 | RIPK1 = 0 | RIPK2 = 0 | ROR2 = 0 | RPS6KA1 = 0 | SPHK1 = 0 | SRC 0 | STK24 = 0

CCOc1c([C@H](C)n2nc(C)c3c(N)ncnc32)cc(Cl)c(F)c1[C@@H]1CNC(=O)C1 [Parsaclisib (hydrochloride)] (10 µM)
inactive: RET 0 | [1] 0 | RIOK1 = 0 | RIPK1 = 0 | RIPK2 = 0 | ROR2 = 0 | RPS6KA1 = 0 | SPHK1 = 0 | SRC 0 | STK24 = 0

Cc1cc(C(C)Nc2ccccc2)c2nc(N3CCOCC3)cc(=O)n2c1 (stereo not given) (10 µM)
inactive: RET 0 | [1] 0 | RIOK1 = 0 | RIPK1 = 0 | RIPK2 = 0 | ROR2 = 0 | RPS6KA1 = 0 | SPHK1 = 0 | SRC 0 | STK24 = 0

CCOc1ccccc1C=C1C(=O)Nc2ccccc21 (10 µM)
inactive: RET 0 | [1] 0 | RIOK1 = 0 | RIPK1 = 0 | RIPK2 = 0 | ROR2 = 0 | RPS6KA1 = 0 | SPHK1 = 0 | SRC 0 | STK24 = 0

2 entries picked at random from the list so far, as already listed:
CCOc1c([C@H](C)n2nc(C)c3c(N)ncnc32)cc(Cl)c(F)c1[C@@H]1CNC(=O)C1 [Parsaclisib (hydrochloride)] (10 µM)
inactive: RET 0 | [1] 0 | RIOK1 = 0 | RIPK1 = 0 | RIPK2 = 0 | ROR2 = 0 | RPS6KA1 = 0 | SPHK1 = 0 | SRC 0 | STK24 = 0

CC1(COc2ccc3c(c2)ncn3-c2ccc3cccc(N4CCC(N)CC4)c3n2)COC1 [Crenolanib] (2.5 µM)
inactive: RET 0 | [1] 0 | RIOK1 = 0 | RIPK1 = 0 | RIPK2 = 0 | ROR2 = 0 | RPS6KA1 = 0 | SPHK1 = 0 | SRC 0 | STK24 = 0

More records follow.

Nc1nc2cc(-c3ccc4ncc(C(=O)N5CCOCC5)n4c3)ccc2o1 [Serabelisib] (10 µM)
inactive: RET 0 | [1] 0 | RIOK1 = 0 | RIPK1 = 0 | RIPK2 = 0 | ROR2 = 0 | RPS6KA1 = 0 | SPHK1 = 0 | SRC 0 | STK24 = 0

CN(CC(=O)N(Cc1ccc(C2CCCCC2)cc1)c1ccc(C(=O)O)c(O)c1)S(=O)(=O)c1c(F)c(F)c(F)c(F)c1F (2.5 µM)
inactive: RET 0 | [1] 0 | RIOK1 = 0 | RIPK1 = 0 | RIPK2 = 0 | ROR2 = 0 | RPS6KA1 = 0 | SPHK1 = 0 | SRC 0 | STK24 = 0

CC(C)c1cnn2c(NCc3ccccc3-n3cccn3)nc(OC3CCCNC3)nc12 (stereo not given) (2.5 µM)
inactive: RET 0 | [1] 0 | RIOK1 = 0 | RIPK1 = 0 | RIPK2 = 0 | ROR2 = 0 | RPS6KA1 = 0 | SPHK1 = 0 | SRC 0 | STK24 = 0

COc1ccc(-n2c(C)c([N+](=O)[O-])c3ccc(O)cc32)cc1 (10 µM)
inactive: RET 0 | [1] 0 | RIOK1 = 0 | RIPK1 = 0 | RIPK2 = 0 | ROR2 = 0 | RPS6KA1 = 0 | SPHK1 = 0 | SRC 0 | STK24 = 0

N#C/C(=C\c1ccc2oc(=O)[nH]c2c1)C(=O)c1ccc(O)c(O)c1 (10 µM)
inactive: RET 0 | [1] 0 | RIOK1 = 0 | RIPK1 = 0 | RIPK2 = 0 | ROR2 = 0 | RPS6KA1 = 0 | SPHK1 = 0 | SRC 0 | STK24 = 0

O=C(O)c1cc(O)c2c(c1)[C@@H]([C@H]1c3cc(C(=O)O)cc(O)c3C(=O)c3c(O[C@@H]4O[C@H](CO)[C@@H](O)[C@H](O)[C@H]4O)cccc31)c1cccc(O[C@@H]3O[C@H](CO)[C@@H](O)[C@H](O)[C@H]3O)c1C2=O [Sennoside B] (2.5 µM)
inactive: RET 0 | [1] 0 | RIOK1 = 0 | RIPK1 = 0 | RIPK2 = 0 | ROR2 = 0 | RPS6KA1 = 0 | SPHK1 = 0 | SRC 0 | STK24 = 0

c1ccc(-c2oc3ncnc(NC[C@@H]4CCCO4)c3c2-c2ccccc2)cc1 (2.5 µM)
inactive: RET 0 | [1] 0 | RIOK1 = 0 | RIPK1 = 0 | RIPK2 = 0 | ROR2 = 0 | RPS6KA1 = 0 | SPHK1 = 0 | SRC 0 | STK24 = 0

c1ccc(-c2nn3c(c2-c2ccnc4cc(OCCN5CCOCC5)ccc24)CCC3)nc1 (10 µM)
inactive: RET 0 | [1] 0 | RIOK1 = 0 | RIPK1 = 0 | ROR2 = 0 | RPS6KA1 = 0 | SPHK1 = 0 | SRC 0 | STK24 = 0
active: RIPK2 = 1

O=C(O)c1ccccc1Nc1cccc(C(F)(F)F)c1 [Flufenamic acid] (10 µM)
inactive: RET 0 | [1] 0 | RIOK1 = 0 | RIPK1 = 0 | RIPK2 = 0 | ROR2 = 0 | RPS6KA1 = 0 | SPHK1 = 0 | SRC 0 | STK24 = 0

O=C(Nc1ccc(Cl)c(Cl)c1)Nc1ccc2nnsc2c1 (10 µM)
inactive: RET 0 | [1] 0 | RIOK1 = 0 | RIPK1 = 0 | RIPK2 = 0 | ROR2 = 0 | RPS6KA1 = 0 | SPHK1 = 0 | SRC 0 | STK24 = 0

C[C@H]1Cc2ccccc2N1C(=O)Cc1nc(N2CCOCC2)cc(=O)[nH]1 (2.5 µM)
inactive: RET 0 | [1] 0 | RIOK1 = 0 | RIPK1 = 0 | RIPK2 = 0 | ROR2 = 0 | RPS6KA1 = 0 | SPHK1 = 0 | SRC 0 | STK24 = 0

CNC(=O)c1cc(Oc2ccc3nc(N[C@@H]4CCCC[C@H]4O)sc3c2)ccn1 (10 µM)
inactive: RET 0 | [1] 0 | RIOK1 = 0 | RIPK1 = 0 | RIPK2 = 0 | ROR2 = 0 | RPS6KA1 = 0 | SPHK1 = 0 | SRC 0 | STK24 = 0

CN1C(=O)NC(Cc2c[nH]c3c(Cl)cccc23)C1=O (racemic) [Necrostatin 2 (racemate)] (10 µM)
inactive: RET 0 | [1] 0 | RIOK1 = 0 | RIPK1 = 0 | RIPK2 = 0 | ROR2 = 0 | RPS6KA1 = 0 | SPHK1 = 0 | SRC 0 | STK24 = 0

O=C(O)c1ccc(-c2c[nH]c3ncc(-c4ccccc4)cc23)cc1C1CCCC1 (2.5 µM)
inactive: RET 0 | [1] 0 | RIOK1 = 0 | RIPK1 = 0 | RIPK2 = 0 | ROR2 = 0 | RPS6KA1 = 0 | SPHK1 = 0 | SRC 0 | STK24 = 0

C[C@@H]1C[C@H]2O[C@@]3(O[C@@H]2C(C)(C)O)[C@H](O)[C@@]2(C)[C@@H]4CC[C@H]5C(C)(C)[C@@H](O[C@@H]6OC[C@H](O)[C@H](O)[C@H]6O)CC[C@@]56C[C@@]46CC[C@]2(C)[C@@H]13 [Cimiracemoside C] (10 µM)
inactive: RET 0 | [1] 0 | RIOK1 = 0 | RIPK1 = 0 | RIPK2 = 0 | ROR2 = 0 | RPS6KA1 = 0 | SPHK1 = 0 | SRC 0 | STK24 = 0

C[C@@H]1O[C@@H](OC[C@H]2O[C@@H](Oc3cc(O)c4c(c3)O[C@H](c3ccc(O)cc3)CC4=O)[C@H](O)[C@@H](O)[C@@H]2O)[C@H](O)[C@H](O)[C@H]1O [Narirutin] (10 µM)
inactive: RET 0 | [1] 0 | RIOK1 = 0 | RIPK1 = 0 | RIPK2 = 0 | ROR2 = 0 | RPS6KA1 = 0 | SPHK1 = 0 | SRC 0 | STK24 = 0
